Results are given in words; binding and its absence hold for the method and conditions named. Some binding calls cover weakened binding; strength is not graded here.

Assay [1] has as its target T1, RHS10 N-terminal bait (amino acids 1–236), extracellular domain (Arabidopsis thaliana) (UniProt Q9CAL8).
T1 sequence: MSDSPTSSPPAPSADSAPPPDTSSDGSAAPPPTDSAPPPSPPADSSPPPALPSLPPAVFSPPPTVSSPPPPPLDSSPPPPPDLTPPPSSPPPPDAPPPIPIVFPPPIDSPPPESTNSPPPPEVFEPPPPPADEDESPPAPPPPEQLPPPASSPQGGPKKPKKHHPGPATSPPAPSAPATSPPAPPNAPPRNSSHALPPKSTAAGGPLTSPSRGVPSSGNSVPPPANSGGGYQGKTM
Nature of the assay: two-hybrid; targeted (repeated) yeast two-hybrid assay; RHS10 kinase domain or N-terminal bait in pGBKT7; 0–70 mM 3-AT to suppress background HIS3 activity.

The target of assay [2] is T2, RHS10 kinase domain (amino acids 256–710), yeast two-hybrid bait (Arabidopsis thaliana) (UniProt Q9CAL8).
T2 sequence: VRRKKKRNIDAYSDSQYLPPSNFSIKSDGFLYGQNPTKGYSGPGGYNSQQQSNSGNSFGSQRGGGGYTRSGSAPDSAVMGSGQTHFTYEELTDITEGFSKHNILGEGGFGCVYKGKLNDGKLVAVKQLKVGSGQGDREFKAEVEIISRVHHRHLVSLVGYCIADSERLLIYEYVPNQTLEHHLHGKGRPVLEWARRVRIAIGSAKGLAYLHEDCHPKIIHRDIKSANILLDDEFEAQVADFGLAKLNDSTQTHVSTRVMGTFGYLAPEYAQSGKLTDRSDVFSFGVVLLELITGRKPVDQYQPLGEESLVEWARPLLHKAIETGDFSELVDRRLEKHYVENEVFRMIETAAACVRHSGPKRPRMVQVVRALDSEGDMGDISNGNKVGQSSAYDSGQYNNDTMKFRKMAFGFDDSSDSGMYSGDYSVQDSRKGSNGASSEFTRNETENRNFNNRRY
Described as above.

B1: RIBONUCLEASE 2 (RNS2), whole sequence, yeast two-hybrid prey (enzyme, UniProt P42814 1-259)
chain: MASRLCLLLLVACIAGAFAGDVIELNRSQREFDYFALSLQWPGTYCRGTRHCCSKNACCRGSDAPTQFTIHGLWPDYNDGSWPSCCYRSDFKEKEISTLMDGLEKYWPSLSCGSPSSCNGGKGSFWGHEWEKHGTCSSPVFHDEYNYFLTTLNLYLKHNVTDVLYQAGYVASNSEKYPLGGIVTAIQNAFHITPEVVCKRDAIDEIRICFYKDFKPRDCVGSQDLTSRKSCPKYVSLPEYTPLDGEAMVLKMPTEREAL
B1: the binding result in assay [1] is “no binding”; in assay [2], “binds”.

For the origin of these results see article PMC4783376.
